# Measurements published in the supplement of paper PMC6411743.
# Amino acid sequences for entries named in this document (tags omitted). A change or cut given only in a name is not applied to a line headed by its entry.
# UniProt P35241, whole entry: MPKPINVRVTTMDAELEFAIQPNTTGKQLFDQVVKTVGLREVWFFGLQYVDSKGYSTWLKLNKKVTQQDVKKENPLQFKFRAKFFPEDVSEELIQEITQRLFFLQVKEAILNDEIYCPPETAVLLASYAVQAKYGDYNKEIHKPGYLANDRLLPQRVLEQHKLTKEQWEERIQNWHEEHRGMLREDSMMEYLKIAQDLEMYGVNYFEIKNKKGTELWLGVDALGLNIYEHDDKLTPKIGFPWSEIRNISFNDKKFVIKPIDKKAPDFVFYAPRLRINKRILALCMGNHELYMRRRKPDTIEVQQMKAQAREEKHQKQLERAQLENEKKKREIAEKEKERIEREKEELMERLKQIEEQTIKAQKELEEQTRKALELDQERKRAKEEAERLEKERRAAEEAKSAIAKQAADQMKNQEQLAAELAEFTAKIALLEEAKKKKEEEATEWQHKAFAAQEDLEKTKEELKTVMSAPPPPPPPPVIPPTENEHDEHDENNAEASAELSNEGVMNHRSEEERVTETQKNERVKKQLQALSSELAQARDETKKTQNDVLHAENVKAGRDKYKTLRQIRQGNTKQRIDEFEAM
# UniProt P33992: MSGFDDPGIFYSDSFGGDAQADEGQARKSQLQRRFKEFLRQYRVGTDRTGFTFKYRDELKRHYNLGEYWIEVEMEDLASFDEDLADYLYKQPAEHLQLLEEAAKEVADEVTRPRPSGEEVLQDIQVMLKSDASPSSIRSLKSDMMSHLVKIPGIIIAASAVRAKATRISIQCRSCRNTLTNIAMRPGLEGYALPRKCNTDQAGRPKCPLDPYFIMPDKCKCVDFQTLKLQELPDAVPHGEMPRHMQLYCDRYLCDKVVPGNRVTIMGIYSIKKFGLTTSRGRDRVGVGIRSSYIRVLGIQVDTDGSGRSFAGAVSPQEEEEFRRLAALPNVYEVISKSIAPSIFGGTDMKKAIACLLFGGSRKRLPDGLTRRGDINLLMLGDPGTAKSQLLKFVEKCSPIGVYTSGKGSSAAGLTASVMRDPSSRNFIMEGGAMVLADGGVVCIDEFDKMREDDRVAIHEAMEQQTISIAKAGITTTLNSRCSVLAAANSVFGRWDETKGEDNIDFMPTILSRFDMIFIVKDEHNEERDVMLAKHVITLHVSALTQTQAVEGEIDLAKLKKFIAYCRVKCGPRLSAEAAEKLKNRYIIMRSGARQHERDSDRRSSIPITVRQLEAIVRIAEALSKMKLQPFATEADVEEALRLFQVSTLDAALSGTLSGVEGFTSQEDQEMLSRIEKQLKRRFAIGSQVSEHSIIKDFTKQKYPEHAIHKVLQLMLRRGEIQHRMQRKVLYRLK
# UniProt P20337: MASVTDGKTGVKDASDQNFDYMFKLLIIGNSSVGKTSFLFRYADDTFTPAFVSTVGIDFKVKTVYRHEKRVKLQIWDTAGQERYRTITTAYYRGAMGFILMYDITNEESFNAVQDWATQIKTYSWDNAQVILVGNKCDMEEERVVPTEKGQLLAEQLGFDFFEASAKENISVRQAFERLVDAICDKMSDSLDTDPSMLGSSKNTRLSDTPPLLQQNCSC
# UniProt P36542: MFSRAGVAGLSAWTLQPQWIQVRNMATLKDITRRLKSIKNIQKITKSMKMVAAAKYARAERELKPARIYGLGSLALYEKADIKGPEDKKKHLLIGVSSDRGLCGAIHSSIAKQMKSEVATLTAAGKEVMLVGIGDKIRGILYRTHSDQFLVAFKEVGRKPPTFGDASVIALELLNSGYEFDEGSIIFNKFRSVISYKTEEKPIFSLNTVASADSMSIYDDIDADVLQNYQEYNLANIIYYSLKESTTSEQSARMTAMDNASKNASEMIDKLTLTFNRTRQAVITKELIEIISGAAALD
# UniProt P28161: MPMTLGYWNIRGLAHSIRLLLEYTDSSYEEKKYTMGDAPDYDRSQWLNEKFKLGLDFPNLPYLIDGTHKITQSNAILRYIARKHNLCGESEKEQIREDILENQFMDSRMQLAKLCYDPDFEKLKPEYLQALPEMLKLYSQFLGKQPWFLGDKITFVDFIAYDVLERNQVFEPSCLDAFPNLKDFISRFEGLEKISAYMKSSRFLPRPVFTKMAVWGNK
# UniProt P32929, whole entry: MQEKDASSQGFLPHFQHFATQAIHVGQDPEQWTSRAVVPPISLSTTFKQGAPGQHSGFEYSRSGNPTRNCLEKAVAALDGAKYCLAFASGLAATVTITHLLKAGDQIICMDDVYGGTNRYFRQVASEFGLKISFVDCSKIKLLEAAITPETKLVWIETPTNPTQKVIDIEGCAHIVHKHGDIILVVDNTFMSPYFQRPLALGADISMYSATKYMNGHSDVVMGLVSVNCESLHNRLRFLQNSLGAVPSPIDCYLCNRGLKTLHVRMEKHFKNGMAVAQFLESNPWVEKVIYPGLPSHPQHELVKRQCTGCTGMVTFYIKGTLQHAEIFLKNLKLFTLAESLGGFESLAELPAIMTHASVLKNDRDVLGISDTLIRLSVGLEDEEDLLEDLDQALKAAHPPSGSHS
# UniProt P24666: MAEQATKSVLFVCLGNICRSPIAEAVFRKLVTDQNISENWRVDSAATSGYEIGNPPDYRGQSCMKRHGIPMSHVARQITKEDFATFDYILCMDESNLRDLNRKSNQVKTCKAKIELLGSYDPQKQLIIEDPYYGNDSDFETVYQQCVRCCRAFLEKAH
# UniProt P37108: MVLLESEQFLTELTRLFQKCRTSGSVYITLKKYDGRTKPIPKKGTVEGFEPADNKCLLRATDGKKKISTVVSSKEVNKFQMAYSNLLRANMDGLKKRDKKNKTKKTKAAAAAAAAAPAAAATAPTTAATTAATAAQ
# UniProt P17900: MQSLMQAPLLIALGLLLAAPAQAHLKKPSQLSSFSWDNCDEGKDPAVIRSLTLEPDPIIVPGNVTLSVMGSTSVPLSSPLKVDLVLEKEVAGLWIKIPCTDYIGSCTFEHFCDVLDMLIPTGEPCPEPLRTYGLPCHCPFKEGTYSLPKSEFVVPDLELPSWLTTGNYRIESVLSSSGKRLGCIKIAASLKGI
# UniProt P36405: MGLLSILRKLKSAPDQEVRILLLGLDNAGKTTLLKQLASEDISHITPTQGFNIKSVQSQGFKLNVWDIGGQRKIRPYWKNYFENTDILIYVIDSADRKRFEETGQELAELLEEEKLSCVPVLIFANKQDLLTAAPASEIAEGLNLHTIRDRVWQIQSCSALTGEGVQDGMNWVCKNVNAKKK
# UniProt P33176: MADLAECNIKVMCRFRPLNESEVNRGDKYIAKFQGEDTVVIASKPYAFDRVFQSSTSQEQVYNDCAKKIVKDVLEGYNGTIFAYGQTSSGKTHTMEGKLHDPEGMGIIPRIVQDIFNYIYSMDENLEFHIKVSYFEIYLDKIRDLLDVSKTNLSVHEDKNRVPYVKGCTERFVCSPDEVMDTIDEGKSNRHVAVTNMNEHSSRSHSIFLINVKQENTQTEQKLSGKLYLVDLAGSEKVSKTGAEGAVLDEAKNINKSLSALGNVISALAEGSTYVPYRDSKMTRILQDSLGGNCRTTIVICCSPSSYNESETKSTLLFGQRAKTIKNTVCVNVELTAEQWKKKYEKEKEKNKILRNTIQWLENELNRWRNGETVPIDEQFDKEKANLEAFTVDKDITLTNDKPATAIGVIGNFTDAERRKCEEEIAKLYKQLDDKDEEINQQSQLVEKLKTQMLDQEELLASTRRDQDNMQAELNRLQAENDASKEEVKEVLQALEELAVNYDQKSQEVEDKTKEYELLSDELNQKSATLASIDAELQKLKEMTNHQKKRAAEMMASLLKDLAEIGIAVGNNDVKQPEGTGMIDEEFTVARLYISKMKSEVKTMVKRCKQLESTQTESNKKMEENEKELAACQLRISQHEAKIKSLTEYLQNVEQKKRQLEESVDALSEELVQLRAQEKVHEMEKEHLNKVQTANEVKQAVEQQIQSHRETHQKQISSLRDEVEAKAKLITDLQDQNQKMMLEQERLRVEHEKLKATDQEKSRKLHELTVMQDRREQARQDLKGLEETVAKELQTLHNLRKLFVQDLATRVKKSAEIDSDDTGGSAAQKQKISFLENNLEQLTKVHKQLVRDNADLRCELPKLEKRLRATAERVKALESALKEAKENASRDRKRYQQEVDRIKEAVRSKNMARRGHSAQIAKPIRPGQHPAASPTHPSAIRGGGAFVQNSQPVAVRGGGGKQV
# UniProt P28702: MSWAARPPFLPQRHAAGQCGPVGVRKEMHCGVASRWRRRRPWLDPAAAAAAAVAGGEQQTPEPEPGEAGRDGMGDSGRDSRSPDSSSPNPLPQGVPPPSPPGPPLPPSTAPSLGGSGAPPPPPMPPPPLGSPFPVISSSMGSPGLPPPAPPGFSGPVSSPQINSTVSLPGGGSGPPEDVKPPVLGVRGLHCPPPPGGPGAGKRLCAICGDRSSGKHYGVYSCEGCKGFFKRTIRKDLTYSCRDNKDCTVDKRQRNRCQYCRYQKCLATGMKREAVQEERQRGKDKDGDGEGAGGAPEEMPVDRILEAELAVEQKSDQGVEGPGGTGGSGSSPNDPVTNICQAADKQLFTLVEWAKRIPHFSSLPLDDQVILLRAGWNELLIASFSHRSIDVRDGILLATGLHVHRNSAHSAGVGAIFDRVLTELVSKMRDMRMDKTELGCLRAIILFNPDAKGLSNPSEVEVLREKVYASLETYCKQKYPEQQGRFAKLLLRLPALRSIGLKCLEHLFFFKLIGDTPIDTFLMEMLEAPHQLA
# UniProt P35244: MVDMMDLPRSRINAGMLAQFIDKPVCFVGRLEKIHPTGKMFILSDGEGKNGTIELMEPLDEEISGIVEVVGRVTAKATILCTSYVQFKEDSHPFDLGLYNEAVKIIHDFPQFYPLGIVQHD
# UniProt P26368, whole entry: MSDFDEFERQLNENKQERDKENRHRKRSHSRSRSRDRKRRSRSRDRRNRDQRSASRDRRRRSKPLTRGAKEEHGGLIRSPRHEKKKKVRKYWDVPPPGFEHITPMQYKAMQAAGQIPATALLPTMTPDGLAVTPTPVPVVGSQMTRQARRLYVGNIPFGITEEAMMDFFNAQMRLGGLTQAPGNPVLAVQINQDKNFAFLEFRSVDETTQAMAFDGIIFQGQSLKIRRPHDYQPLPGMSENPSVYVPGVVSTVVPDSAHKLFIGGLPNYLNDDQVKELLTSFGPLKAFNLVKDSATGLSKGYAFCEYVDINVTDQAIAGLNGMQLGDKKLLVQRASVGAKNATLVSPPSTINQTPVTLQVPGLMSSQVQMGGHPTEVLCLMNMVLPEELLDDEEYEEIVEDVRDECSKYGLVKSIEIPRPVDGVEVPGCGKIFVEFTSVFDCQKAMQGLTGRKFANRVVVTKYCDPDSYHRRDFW
# UniProt P17096: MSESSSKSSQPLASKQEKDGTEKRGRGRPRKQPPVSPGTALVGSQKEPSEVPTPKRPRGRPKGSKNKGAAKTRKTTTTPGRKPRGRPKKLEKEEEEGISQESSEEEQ
# UniProt P17568, whole entry: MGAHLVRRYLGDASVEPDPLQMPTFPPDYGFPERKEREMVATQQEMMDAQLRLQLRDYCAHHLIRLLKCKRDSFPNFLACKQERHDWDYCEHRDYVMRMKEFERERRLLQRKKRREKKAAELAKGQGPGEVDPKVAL
# UniProt P31146: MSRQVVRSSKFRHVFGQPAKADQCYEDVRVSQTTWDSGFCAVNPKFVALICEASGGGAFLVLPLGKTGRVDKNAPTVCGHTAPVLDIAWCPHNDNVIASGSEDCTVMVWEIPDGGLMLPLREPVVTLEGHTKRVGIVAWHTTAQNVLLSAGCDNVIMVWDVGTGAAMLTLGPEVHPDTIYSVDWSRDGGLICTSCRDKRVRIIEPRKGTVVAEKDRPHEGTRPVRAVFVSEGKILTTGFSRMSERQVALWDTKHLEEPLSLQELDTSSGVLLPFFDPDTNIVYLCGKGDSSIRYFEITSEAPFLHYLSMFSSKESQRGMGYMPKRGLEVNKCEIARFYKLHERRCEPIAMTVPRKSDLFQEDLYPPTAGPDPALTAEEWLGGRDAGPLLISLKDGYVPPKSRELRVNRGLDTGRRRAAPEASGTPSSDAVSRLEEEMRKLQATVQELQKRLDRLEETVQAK
# ± gives the standard deviation of the averaged measurements. Only a part is listed here, and it is no random draw.
# Compound: Nc1ncnc2c1ncn2[C@@H]1O[C@H](COP(=O)(O)OP(=O)(O)NP(=O)(O)O)[C@@H](O)[C@H]1O [adenylyl imidodiphosphate]
# Test: NP40-soluble protein abundance relative to vehicle (solubility fold change) (ratio); higher = more soluble protein in presence of AMP-PNP
# Outline: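 Values are fold changes against the detergent-processed vehicle, based on vsn-normalised intensities. Jurkat crude lysate was treated at eight concentrations from 0.1 to 10 mM (10 min at room temperature, then 3 min at 37 °C), solubilised with 0.8% NP40 and benzonase, ultracentrifuged and analysed by TMT-labelled LC-MS/MS over three independent experiments.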
Target,NP40-soluble protein abundance (concentration: 1mM),NP40-soluble protein abundance (concentration: 2mM),NP40-soluble protein abundance (concentration: 4mM),NP40-soluble protein abundance (concentration: 6mM),NP40-soluble protein abundance (concentration: 8mM),NP40-soluble protein abundance (concentration: 10mM)
RDX (UniProt P35241),1.06 ± 0.045,1.08 ± 0.024,1.01 ± 0.032,1.01 ± 0.064,0.968 ± 0.044,1 ± 0.056
PRDX6 (UniProt P30041),0.948 ± 0.036,0.91 ± 0.038,0.906 ± 0.015,0.924 ± 0.035,0.948 ± 0.0015,0.87 ± 0.051
GDI1 (UniProt P31150),1.02 ± 0.02,0.975 ± 0.048,1.02 ± 0.027,0.942 ± 0.021,0.982 ± 0.018,0.924 ± 0.015
MCM5 (UniProt P33992),0.934 ± 0.014,0.884 ± 0.099,0.92 ± 0.0097,0.913 ± 0.024,0.934 ± 0.036,0.894 ± 0.061
IGHMBP2 (UniProt P38935),1.17 ± 0.014,1.16 ± 0.05,1.22 ± 0.083,1.26 ± 0.086,1.33 ± 0.06,1.42 ± 0.12
CA8 (UniProt P35219),0.998 ± 0.026,0.967 ± 0.06,0.973 ± 0.028,0.982 ± 0.035,1.03 ± 0.04,0.966 ± 0.033
PGAM1 (UniProt P18669),0.934 ± 0.098,0.942 ± 0.039,0.899 ± 0.1,0.952 ± 0.034,0.972 ± 0.074,0.938 ± 0.11
UniProt P17252,1.05 ± 0.022,1.05 ± 0.053,1.02 ± 0.079,1.04 ± 0.032,1.03 ± 0.071,1.04 ± 0.11
UniProt P36507,1.04 ± 0.037,1.05 ± 0.08,1.01 ± 0.066,1.05 ± 0.029,1.02 ± 0.061,1.04 ± 0.077
RAB3B (UniProt P20337),0.996 ± 0.021,1.02 ± 0.05,1 ± 0.019,0.976 ± 0.03,0.992 ± 0.052,0.958 ± 0.02
SFPQ (UniProt P23246),1.15 ± 0.054,1.25 ± 0.076,1.41 ± 0.12,1.68 ± 0.26,1.75 ± 0.28,2.02 ± 0.41
SDHA (UniProt P31040),0.9896 ± 0.0076,0.955 ± 0.014,0.967 ± 0.013,0.946 ± 0.0098,0.959 ± 0.027,0.922 ± 0.016
UniProt P36542,0.941 ± 0.047,0.872 ± 0.056,0.889 ± 0.068,1.006 ± 0.0096,0.9834 ± 0.0089,0.969 ± 0.1
UniProt P20020 and related entries,1.03 ± 0.032,1.06 ± 0.044,1.03 ± 0.037,0.964 ± 0.012,0.96 ± 0.024,0.988 ± 0.057
GSTM2 (UniProt P28161),0.988 ± 0.041,0.959 ± 0.036,0.945 ± 0.046,0.942 ± 0.013,0.953 ± 0.01,0.901 ± 0.012
CMPK1 (UniProt P30085),0.986 ± 0.064,1.03 ± 0.056,0.927 ± 0.11,0.995 ± 0.023,0.912 ± 0.086,0.957 ± 0.12
UniProt P28749 and related entries,0.992 ± 0.039,1.027 ± 0.0021,0.995 ± 0.037,0.9627 ± 0.001,0.951 ± 0.054,0.977 ± 0.069
UniProt P23634 and related entries,0.96 ± 0.042,0.937 ± 0.05,0.957 ± 0.026,0.945 ± 0.015,0.955 ± 0.019,0.959 ± 0.041
UniProt P32929 and related entries,0.972 ± 0.058,0.911 ± 0.019,0.989 ± 0.051,0.976 ± 0.069,1.02 ± 0.074,0.991 ± 0.068
FBL (UniProt P22087),1.02 ± 0.046,1.027 ± 0.003,1.1 ± 0.051,1.22 ± 0.092,1.37 ± 0.12,1.48 ± 0.25

# A section taken from the entries so far:
Target,NP40-soluble protein abundance (concentration: 1mM),NP40-soluble protein abundance (concentration: 2mM),NP40-soluble protein abundance (concentration: 4mM),NP40-soluble protein abundance (concentration: 6mM),NP40-soluble protein abundance (concentration: 8mM),NP40-soluble protein abundance (concentration: 10mM)
CA8 (UniProt P35219),0.998 ± 0.026,0.967 ± 0.06,0.973 ± 0.028,0.982 ± 0.035,1.03 ± 0.04,0.966 ± 0.033
PGAM1 (UniProt P18669),0.934 ± 0.098,0.942 ± 0.039,0.899 ± 0.1,0.952 ± 0.034,0.972 ± 0.074,0.938 ± 0.11
UniProt P17252,1.05 ± 0.022,1.05 ± 0.053,1.02 ± 0.079,1.04 ± 0.032,1.03 ± 0.071,1.04 ± 0.11
UniProt P36507,1.04 ± 0.037,1.05 ± 0.08,1.01 ± 0.066,1.05 ± 0.029,1.02 ± 0.061,1.04 ± 0.077
RAB3B (UniProt P20337),0.996 ± 0.021,1.02 ± 0.05,1 ± 0.019,0.976 ± 0.03,0.992 ± 0.052,0.958 ± 0.02

# Additional entries:

Target,NP40-soluble protein abundance (concentration: 1mM),NP40-soluble protein abundance (concentration: 2mM),NP40-soluble protein abundance (concentration: 4mM),NP40-soluble protein abundance (concentration: 6mM),NP40-soluble protein abundance (concentration: 8mM),NP40-soluble protein abundance (concentration: 10mM)
POLR2E (UniProt P19388),0.967 ± 0.035,0.937 ± 0.058,0.987 ± 0.032,0.992 ± 0.013,1.03 ± 0.024,1 ± 0.068
UniProt P20963-3|P20963,0.998 ± 0.073,1.024 ± 0.0045,0.954 ± 0.051,0.917 ± 0.05,0.923 ± 0.015,0.906 ± 0.06
UniProt P26639,0.974 ± 0.018,0.904 ± 0.07,0.9517 ± 0.0031,0.94 ± 0.017,0.968 ± 0.01,0.9179 ± 0.0046
LRPAP1 (UniProt P30533),1.04 ± 0.021,1.11 ± 0.098,1.04 ± 0.025,1.048 ± 0.0067,1.03 ± 0.028,1.05 ± 0.024
UniProt P24666 and related entries,1.02 ± 0.04,1 ± 0.022,0.997 ± 0.026,1.02 ± 0.029,1.02 ± 0.048,1.01 ± 0.046
DNAJA1 (UniProt P31689),0.919 ± 0.03,0.914 ± 0.051,0.892 ± 0.062,0.865 ± 0.071,0.837 ± 0.066,0.835 ± 0.058
AGA (UniProt P20933),1.01 ± 0.04,1.05 ± 0.073,1.06 ± 0.022,1.04 ± 0.011,1.03 ± 0.041,1.02 ± 0.033
ITGA2 (UniProt P17301),0.9944 ± 0.0014,1.02 ± 0.084,0.988 ± 0.024,1.019 ± 0.0071,1.01 ± 0.025,1.04 ± 0.011
RFX1 (UniProt P22670),1.04 ± 0.016,1.03 ± 0.015,1.03 ± 0.03,1 ± 0.033,1.01 ± 0.025,0.995 ± 0.02
SRP14 (UniProt P37108),0.951 ± 0.0084,1.03 ± 0.096,0.944 ± 0.015,1.01 ± 0.054,0.979 ± 0.042,1.01 ± 0.064
ZKSCAN1 (UniProt P17029),1.02 ± 0.028,1.01 ± 0.078,0.966 ± 0.042,0.934 ± 0.017,0.921 ± 0.06,0.917 ± 0.034
UniProt P31942 and related entries,1.01 ± 0.1,1.02 ± 0.078,1 ± 0.13,1.02 ± 0.11,0.984 ± 0.076,1.02 ± 0.1
UniProt P28331 and related entries,0.972 ± 0.037,0.935 ± 0.081,0.954 ± 0.059,0.949 ± 0.055,0.938 ± 0.037,0.942 ± 0.086
UniProt P37275-2|P37275-5|P37275,1.03 ± 0.041,1.06 ± 0.067,1.037 ± 0.0025,1 ± 0.024,0.985 ± 0.025,1.04 ± 0.037
UniProt P29016,0.961 ± 0.07,0.988 ± 0.036,0.989 ± 0.039,0.975 ± 0.051,0.997 ± 0.057,0.994 ± 0.075
PGM1 (UniProt P36871),0.978 ± 0.042,0.914 ± 0.04,0.939 ± 0.025,0.974 ± 0.04,0.969 ± 0.035,0.935 ± 0.014
GM2A (UniProt P17900),0.993 ± 0.035,0.987 ± 0.025,0.982 ± 0.042,0.9732 ± 0.0092,0.971 ± 0.016,0.955 ± 0.031
UniProt P22033,1.01 ± 0.0057,0.965 ± 0.07,0.979 ± 0.013,0.964 ± 0.024,0.941 ± 0.01,0.941 ± 0.024
HPCAL1 (UniProt P37235),1.01 ± 0.02,1.02 ± 0.031,1.02 ± 0.029,1 ± 0.052,0.997 ± 0.059,0.975 ± 0.066
ATP6V1C1 (UniProt P21283),0.999 ± 0.012,0.9651 ± 0.0032,0.982 ± 0.018,0.9568 ± 0.0058,0.968 ± 0.0073,0.954 ± 0.036

Target,NP40-soluble protein abundance (concentration: 1mM),NP40-soluble protein abundance (concentration: 2mM),NP40-soluble protein abundance (concentration: 4mM),NP40-soluble protein abundance (concentration: 6mM),NP40-soluble protein abundance (concentration: 8mM),NP40-soluble protein abundance (concentration: 10mM)
ARL3 (UniProt P36405),0.9899 ± 0.0033,0.945 ± 0.031,0.995 ± 0.048,0.988 ± 0.052,1.03 ± 0.041,0.99 ± 0.042
ATP6V1A (UniProt P38606),0.969 ± 0.012,0.898 ± 0.078,0.946 ± 0.027,0.9602 ± 0.0071,0.978 ± 0.021,0.935 ± 0.048
ATP6V1B2 (UniProt P21281),1.01 ± 0.047,1 ± 0.042,0.971 ± 0.019,0.969 ± 0.064,0.94 ± 0.042,0.96 ± 0.069
NUP62 (UniProt P37198),1.01 ± 0.026,1.06 ± 0.078,0.997 ± 0.068,0.998 ± 0.019,1.02 ± 0.027,1.06 ± 0.048
KIF5B (UniProt P33176),1.02 ± 0.023,1.05 ± 0.067,0.9984 ± 0.0049,1 ± 0.03,0.978 ± 0.027,0.985 ± 0.037
UniProt P27540 and related entries,1.02 ± 0.045,1.07 ± 0.067,1.07 ± 0.019,1.01 ± 0.018,1.03 ± 0.04,1.04 ± 0.035
CPT2 (UniProt P23786),0.969 ± 0.025,0.922 ± 0.045,0.956 ± 0.0099,0.936 ± 0.018,0.9376 ± 0.0088,0.916 ± 0.031
UniProt P28702 and related entries,0.999 ± 0.026,1.02 ± 0.015,1.01 ± 0.019,0.9937 ± 0.0096,0.979 ± 0.025,0.987 ± 0.019
UniProt P35244 and related entries,0.989 ± 0.022,0.9771 ± 0.0058,0.9574 ± 0.0044,0.981 ± 0.032,0.957 ± 0.037,0.944 ± 0.038
UniProt P23771 and related entries,0.959 ± 0.029,0.99 ± 0.043,0.9254 ± 0.0013,0.895 ± 0.0095,0.908 ± 0.012,0.908 ± 0.022
PRKAR2B (UniProt P31323),1 ± 0.043,0.97 ± 0.062,0.982 ± 0.037,0.989 ± 0.027,1.01 ± 0.058,1.01 ± 0.046
UniProt P17612,0.9057 ± 0.0056,0.869 ± 0.082,0.882 ± 0.036,0.882 ± 0.043,0.886 ± 0.026,0.844 ± 0.05
UniProt P26368 and related entries,0.986 ± 0.075,1 ± 0.025,1.11 ± 0.069,1.24 ± 0.098,1.41 ± 0.09,1.51 ± 0.12
DLST (UniProt P36957),1 ± 0.17,0.979 ± 0.17,1 ± 0.18,1.01 ± 0.2,1.01 ± 0.15,1.05 ± 0.23
UniProt P35658 and related entries,1.03 ± 0.018,1.07 ± 0.069,1.04 ± 0.046,1.03 ± 0.017,1.04 ± 0.025,1.11 ± 0.084
UniProt P17544-2|P17544-4|P17544-6,1.03 ± 0.067,1.04 ± 0.073,1 ± 0.051,1.01 ± 0.081,1.01 ± 0.039,1.01 ± 0.057
UniProt P20339 and related entries,0.999 ± 0.025,0.972 ± 0.048,1 ± 0.019,1.05 ± 0.081,1.07 ± 0.074,1.06 ± 0.05
UniProt P17096 and related entries,1.01 ± 0.076,1.19 ± 0.19,1.12 ± 0.047,1.29 ± 0.057,1.31 ± 0.088,1.74 ± 0.29
NDUFB7 (UniProt P17568),1.01 ± 0.026,1.07 ± 0.13,1 ± 0.062,1.08 ± 0.067,1.11 ± 0.068,1.09 ± 0.046
CORO1A (UniProt P31146),1.04 ± 0.015,1.01 ± 0.024,1.05 ± 0.032,1.11 ± 0.042,1.11 ± 0.08,1.11 ± 0.12
